# Results reported in paper PMC8019017.
# Sequences of proteins named here, by UniProt entry; tags and fusion partners are left off. A change or cut given only in a name is not applied to a line headed by its entry.
# UniProt Q14703: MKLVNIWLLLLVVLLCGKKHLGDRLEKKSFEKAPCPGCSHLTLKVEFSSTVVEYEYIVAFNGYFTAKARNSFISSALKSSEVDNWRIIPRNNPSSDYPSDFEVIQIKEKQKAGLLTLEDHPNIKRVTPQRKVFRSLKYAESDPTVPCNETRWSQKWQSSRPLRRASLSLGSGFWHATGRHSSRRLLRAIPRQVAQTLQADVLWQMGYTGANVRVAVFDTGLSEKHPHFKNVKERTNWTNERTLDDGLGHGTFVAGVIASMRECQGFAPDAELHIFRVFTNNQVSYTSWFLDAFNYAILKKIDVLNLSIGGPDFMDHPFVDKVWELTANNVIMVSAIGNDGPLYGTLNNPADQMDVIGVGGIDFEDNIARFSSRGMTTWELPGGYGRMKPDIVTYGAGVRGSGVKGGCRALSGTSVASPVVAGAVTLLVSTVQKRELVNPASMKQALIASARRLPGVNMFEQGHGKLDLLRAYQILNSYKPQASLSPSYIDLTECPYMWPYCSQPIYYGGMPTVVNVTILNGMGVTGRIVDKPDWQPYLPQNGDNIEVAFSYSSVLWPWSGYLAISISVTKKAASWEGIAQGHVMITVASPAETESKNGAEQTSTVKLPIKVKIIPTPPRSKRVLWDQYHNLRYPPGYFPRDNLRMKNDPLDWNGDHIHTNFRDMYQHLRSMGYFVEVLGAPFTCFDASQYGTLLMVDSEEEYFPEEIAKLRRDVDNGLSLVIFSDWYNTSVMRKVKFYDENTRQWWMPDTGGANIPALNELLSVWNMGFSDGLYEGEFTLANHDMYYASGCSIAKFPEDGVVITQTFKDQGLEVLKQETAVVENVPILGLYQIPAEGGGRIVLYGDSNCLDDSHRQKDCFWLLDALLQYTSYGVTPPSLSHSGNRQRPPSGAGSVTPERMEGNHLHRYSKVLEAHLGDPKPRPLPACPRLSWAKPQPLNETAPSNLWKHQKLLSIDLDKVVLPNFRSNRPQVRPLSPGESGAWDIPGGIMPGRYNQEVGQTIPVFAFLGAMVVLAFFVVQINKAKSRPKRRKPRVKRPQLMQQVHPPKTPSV
# Results are given in words; binding and its absence hold for the method and conditions named. In cells and extracts the contact can be indirect. Binding calls can cover weak binding; strength is not graded here. Sequences can lack the tags named with a protein.
# Molecular target: T1, partner of site-1 protease (POST1) with a 3×Flag tag (human) (UniProt Q9H741)
# T1 sequence: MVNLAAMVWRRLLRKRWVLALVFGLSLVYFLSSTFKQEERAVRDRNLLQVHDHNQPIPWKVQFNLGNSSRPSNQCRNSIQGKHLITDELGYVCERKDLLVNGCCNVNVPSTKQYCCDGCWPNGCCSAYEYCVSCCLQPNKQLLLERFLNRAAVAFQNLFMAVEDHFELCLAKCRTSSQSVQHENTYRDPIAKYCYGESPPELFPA
# Assay: co-IP; HeLa cells transfected with pCMV-S1P-5×Myc and increasing amounts of pCMV-POST1-3×Flag for 48 h; precipitation with anti-Flag agarose
substance,measurement,value
site-1 protease (S1P) with a C-terminal 5×Myc tag (from UniProt Q14703) (enzyme),binding,binds
